Measurements reported in article doi:10.1101/2024.03.05.583464.
Results are given in words; binding and its absence hold for the method and conditions named. Binding seen in cells or lysates may run through a third protein. Here binding means that the protein was enriched with, or labelled near, the bait; the list need not be complete.

The chains behind the UniProt entries cited, without tags or fusion partners.
UniProt O15392: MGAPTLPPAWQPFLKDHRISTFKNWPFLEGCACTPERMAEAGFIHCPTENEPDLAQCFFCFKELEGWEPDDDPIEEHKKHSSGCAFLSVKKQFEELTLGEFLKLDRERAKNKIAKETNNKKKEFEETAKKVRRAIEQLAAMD
UniProt Q92785: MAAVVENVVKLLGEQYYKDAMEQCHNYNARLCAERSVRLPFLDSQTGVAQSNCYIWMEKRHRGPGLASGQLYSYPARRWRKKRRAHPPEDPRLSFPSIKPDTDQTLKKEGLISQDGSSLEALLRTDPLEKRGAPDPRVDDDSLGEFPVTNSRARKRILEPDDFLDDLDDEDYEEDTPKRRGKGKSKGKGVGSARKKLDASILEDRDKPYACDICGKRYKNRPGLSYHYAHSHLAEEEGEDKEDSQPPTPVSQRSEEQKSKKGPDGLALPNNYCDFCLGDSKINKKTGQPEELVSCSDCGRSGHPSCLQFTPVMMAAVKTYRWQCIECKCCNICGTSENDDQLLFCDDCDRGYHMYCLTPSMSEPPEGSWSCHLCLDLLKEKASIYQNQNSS
UniProt P51531: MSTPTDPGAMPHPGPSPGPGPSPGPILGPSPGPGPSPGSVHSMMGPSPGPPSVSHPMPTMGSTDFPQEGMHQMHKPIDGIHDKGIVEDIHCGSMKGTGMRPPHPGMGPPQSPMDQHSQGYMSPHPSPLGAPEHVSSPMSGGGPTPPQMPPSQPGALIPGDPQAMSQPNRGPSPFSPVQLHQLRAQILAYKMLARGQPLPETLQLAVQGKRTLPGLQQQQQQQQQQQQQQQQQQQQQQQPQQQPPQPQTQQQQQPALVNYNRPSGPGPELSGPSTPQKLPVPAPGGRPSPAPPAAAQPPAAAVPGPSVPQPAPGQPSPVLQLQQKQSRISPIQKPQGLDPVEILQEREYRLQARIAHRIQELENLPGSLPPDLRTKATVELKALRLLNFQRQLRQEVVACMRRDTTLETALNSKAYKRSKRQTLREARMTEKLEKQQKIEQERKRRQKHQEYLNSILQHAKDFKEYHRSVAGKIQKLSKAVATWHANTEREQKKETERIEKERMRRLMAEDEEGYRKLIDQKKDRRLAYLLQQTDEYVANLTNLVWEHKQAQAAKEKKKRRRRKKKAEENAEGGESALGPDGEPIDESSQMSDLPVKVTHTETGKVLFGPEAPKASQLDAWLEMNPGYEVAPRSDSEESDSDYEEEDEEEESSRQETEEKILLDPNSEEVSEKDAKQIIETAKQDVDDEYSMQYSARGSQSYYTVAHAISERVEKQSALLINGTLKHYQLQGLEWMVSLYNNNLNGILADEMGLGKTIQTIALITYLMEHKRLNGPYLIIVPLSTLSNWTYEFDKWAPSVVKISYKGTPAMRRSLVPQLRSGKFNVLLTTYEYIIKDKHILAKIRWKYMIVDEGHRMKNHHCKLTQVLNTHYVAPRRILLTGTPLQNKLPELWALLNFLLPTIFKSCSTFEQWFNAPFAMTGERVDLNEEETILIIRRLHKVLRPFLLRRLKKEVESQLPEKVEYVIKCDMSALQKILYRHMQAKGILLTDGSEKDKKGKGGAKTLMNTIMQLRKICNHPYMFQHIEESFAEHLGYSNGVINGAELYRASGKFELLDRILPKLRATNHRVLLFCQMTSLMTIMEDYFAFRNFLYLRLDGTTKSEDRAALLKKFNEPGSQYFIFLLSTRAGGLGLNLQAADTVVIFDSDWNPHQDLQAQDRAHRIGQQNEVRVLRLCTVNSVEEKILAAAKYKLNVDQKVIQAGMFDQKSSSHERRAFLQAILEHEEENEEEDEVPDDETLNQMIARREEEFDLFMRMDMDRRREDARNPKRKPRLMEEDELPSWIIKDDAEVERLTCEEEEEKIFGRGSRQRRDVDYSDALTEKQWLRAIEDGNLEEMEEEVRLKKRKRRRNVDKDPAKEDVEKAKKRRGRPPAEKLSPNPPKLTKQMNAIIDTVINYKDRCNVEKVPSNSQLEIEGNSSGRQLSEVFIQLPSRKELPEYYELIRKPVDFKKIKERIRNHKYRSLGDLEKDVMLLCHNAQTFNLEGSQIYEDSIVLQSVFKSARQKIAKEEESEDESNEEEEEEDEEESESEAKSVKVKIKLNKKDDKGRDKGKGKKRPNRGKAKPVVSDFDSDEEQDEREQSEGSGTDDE
UniProt P51532: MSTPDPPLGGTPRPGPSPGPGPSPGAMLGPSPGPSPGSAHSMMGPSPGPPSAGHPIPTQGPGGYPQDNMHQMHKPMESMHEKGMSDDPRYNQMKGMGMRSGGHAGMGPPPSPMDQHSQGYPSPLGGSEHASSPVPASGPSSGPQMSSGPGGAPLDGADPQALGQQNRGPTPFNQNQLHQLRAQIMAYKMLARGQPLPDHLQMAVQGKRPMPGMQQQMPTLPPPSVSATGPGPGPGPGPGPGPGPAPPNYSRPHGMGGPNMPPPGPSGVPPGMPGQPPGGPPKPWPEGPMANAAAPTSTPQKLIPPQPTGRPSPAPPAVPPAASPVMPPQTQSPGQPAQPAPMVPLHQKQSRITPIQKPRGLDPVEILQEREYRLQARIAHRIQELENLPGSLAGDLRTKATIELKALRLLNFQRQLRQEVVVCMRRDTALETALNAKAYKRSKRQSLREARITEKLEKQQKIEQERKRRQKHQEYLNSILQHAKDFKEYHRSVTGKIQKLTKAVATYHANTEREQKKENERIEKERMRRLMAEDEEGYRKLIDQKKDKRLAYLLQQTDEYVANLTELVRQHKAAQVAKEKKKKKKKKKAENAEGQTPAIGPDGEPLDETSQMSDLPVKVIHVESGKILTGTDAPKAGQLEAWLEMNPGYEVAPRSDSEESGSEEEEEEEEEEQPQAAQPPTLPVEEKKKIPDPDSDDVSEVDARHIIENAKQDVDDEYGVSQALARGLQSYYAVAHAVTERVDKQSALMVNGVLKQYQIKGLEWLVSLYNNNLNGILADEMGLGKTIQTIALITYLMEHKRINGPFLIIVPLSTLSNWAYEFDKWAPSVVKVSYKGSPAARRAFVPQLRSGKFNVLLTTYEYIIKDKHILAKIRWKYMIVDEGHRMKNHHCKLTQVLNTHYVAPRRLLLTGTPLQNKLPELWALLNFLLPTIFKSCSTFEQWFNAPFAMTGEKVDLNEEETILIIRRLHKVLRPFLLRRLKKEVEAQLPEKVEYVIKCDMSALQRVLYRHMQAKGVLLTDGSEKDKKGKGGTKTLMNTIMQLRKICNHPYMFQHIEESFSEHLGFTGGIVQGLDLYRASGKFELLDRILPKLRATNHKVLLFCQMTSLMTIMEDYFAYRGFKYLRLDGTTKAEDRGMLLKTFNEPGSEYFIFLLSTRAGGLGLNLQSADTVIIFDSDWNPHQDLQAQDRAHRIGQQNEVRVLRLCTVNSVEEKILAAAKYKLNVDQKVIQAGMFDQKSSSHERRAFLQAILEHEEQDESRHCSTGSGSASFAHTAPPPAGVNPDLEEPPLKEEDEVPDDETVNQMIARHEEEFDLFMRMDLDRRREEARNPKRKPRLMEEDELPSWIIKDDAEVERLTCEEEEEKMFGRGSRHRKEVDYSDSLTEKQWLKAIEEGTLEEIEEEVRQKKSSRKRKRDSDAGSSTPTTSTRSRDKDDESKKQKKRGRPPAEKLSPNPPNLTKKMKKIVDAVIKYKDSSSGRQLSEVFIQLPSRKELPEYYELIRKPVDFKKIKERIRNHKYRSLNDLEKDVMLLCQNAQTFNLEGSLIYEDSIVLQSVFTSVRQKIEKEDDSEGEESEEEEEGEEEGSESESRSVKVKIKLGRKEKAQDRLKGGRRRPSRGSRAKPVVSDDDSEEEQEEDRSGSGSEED
UniProt Q8TAQ2: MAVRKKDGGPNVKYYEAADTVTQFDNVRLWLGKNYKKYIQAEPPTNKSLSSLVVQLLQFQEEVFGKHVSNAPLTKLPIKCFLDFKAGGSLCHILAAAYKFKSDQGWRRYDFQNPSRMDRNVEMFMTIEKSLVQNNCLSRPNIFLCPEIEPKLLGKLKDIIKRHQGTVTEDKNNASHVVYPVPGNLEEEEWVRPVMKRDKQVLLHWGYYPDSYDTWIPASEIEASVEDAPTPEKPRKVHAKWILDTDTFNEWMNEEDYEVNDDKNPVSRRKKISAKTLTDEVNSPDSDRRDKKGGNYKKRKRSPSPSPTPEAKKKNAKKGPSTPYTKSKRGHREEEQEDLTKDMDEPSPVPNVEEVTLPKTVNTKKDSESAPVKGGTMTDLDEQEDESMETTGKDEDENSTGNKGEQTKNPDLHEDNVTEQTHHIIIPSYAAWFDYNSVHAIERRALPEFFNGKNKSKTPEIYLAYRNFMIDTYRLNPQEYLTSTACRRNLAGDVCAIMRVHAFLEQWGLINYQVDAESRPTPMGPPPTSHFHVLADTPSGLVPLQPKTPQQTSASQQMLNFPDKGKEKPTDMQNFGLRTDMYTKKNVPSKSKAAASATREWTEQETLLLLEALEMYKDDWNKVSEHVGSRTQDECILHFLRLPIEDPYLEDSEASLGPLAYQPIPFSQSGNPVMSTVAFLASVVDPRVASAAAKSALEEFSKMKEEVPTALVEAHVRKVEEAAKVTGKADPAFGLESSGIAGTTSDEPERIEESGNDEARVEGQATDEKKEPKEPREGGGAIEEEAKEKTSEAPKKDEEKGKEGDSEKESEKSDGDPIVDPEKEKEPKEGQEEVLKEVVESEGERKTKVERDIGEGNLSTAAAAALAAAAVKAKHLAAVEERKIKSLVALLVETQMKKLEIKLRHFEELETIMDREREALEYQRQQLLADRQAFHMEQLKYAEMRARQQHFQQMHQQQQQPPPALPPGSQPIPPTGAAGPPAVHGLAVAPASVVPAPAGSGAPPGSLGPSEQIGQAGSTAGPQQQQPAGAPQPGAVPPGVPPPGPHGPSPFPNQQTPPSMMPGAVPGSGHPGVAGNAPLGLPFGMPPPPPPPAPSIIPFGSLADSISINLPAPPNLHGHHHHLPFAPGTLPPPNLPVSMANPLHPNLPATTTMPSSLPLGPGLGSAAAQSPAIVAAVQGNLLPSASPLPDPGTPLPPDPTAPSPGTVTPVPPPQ
UniProt Q96GM5: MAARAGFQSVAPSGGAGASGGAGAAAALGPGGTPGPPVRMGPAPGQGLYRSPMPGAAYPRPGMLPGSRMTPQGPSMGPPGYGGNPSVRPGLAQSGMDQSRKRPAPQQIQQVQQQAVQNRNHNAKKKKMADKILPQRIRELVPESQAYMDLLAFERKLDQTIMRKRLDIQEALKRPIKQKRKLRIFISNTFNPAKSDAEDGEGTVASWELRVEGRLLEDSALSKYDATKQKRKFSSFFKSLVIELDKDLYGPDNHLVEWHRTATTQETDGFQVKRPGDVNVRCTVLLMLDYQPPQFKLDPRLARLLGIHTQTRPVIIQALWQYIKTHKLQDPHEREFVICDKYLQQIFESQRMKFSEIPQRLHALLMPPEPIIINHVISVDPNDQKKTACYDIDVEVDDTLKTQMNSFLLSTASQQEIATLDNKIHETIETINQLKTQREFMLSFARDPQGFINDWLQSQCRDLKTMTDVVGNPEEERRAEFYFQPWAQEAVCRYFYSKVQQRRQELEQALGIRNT
UniProt Q92925: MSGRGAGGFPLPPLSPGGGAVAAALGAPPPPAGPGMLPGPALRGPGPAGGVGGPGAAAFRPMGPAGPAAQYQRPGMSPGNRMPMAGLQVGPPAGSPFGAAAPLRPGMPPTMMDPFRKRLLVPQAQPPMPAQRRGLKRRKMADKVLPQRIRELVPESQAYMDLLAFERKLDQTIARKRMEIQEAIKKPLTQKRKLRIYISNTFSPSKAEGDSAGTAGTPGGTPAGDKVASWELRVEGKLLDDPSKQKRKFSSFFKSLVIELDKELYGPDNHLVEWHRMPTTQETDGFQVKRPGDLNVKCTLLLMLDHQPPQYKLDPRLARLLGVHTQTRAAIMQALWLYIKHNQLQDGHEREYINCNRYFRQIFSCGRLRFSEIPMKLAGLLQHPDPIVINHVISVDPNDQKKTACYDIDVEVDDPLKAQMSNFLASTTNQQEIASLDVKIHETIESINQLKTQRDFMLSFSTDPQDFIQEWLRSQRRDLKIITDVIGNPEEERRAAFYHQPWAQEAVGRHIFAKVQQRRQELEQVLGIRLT
UniProt Q969G3: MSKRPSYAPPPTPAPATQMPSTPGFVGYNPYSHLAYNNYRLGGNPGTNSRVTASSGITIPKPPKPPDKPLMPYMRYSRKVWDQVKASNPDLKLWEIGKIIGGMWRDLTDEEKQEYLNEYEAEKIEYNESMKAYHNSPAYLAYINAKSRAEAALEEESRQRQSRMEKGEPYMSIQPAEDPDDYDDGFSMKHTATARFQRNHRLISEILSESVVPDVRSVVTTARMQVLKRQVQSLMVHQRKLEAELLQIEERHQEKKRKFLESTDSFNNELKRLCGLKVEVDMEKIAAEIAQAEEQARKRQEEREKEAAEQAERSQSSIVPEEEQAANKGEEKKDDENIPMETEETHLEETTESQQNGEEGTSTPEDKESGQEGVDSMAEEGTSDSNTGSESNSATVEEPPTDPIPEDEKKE

Target: survivin (human (endogenous in THP1)) (UniProt O15392)
Assay: affinity purification with mass spectrometry

| Substance | binding |
| --- | --- |
| DPF2 (from UniProt Q92785 1-391) | binds |
| PBRM1 (from UniProt Q86U86 1-1689) | binds |
| SMARCA2 (from UniProt P51531 1-1590) | binds |
| SMARCA4 (from UniProt P51532 1-1647) | binds |
| SMARCC1 (from UniProt Q92922 1-1105) | binds |
| SMARCC2 (from UniProt Q8TAQ2 1-1214) | binds |
| SMARCD1 (from UniProt Q96GM5 1-515) | binds |
| SMARCD2 (from UniProt Q92925 1-531) | binds |
| SMARCE1 (from UniProt Q969G3 1-411) | binds |
